The assay addresses Geobacillus thermoleovorans NocΔCTD (Geobacillus thermoleovorans). The experiment in a line: crystal structure; G. thermoleovorans NocΔCTD, premixed with 1 mM CTP and 1 mM MgCl2 (no CTP in the density), 2.5 Å, space group P2(1)3, two copies per asymmetric unit; both purified.

These are yes or no findings as the source states them, for the method shown.

1 substance from PMC8429893, “CTP regulates membrane-binding activity of the nucleoid occlusion protein Noc” (Molecular Cell, 2021) can be followed below.

Take “Geobacillus thermoleovorans NocΔCTD (from UniProt A0ABF7PFW1 46-284) (domain or fragment)”: the binding entry is given as “no binding”.
